Results: PMC7819943, “Rice protein-binding microarrays: a tool to detect cis-acting elements near promoter regions in rice”
This is one part of the list.

Target: T1, OsSMF1 (Oryza sativa, UniProt Q6ZLB0 1-436)
T1 sequence: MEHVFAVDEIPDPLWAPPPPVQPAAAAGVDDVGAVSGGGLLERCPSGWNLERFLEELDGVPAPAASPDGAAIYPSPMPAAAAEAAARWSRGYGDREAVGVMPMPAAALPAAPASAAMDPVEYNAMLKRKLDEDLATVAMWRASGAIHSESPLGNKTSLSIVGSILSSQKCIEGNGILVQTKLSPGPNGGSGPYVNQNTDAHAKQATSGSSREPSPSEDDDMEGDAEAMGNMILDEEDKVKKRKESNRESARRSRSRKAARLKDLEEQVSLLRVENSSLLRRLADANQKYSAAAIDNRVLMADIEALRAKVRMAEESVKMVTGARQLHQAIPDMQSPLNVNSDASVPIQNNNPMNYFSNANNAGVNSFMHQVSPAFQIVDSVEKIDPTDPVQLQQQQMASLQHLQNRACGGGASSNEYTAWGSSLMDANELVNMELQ
Assay: protein-binding microarray (RPBM); PBS, 2% BSA, 51.3 ng/ul salmon testes DNA, 50 uM zinc acetate, 200 nM TF, 25 C, 1 h; high values mean tight binding
Conditions: protein: recombinant; tags: N-terminal polyhistidine and DsRed monomer fusion (pET32a); chain copies: 2; label: CyDye5-dUTP incorporated in the synthesized complementary strand; 3' TTTTT single-stranded linker to array surface; dsDNA, one strand shown
In short: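 Polyhistidine-tagged DsRed fusions of transcription factors, joined at the N-terminus, were expressed in E. coli BL21-CodonPlus and isolated on Ni–NTA. They were incubated at 200 nM for 1 h at 25 °C on a custom Agilent array, double-stranded and BSA-blocked, in PBS with 2% BSA, salmon testes DNA and 50 µM zinc acetate. The binding signal is per-feature fluorescence intensity (arbitrary units) read on an Axon 4000B scanner after washing.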

| Sequence | binding signal |
| --- | --- |
| TGGTGGTGGTGGGGAGCGGCCTTTATCCGTGGCGTTGGCACGGAGTCACCTAGTGCAG | 3350 fluorescence intensity (a.u.) |
| AGTATGCTTTTCTTAACGATGACGTCAGCATACACCTCGGCGGAGTCACCTAGTGCAG | 45200 fluorescence intensity (a.u.) |
| CACATGTCAGTGACTCAATGTCACCGAGAATATCACGGGGCGGAGTCACCTAGTGCAG | 4650 fluorescence intensity (a.u.) |
| ATGCATGACTCAGCTCGCATCCGCATCGTGCATTCGTGCCCGGAGTCACCTAGTGCAG | 10200 fluorescence intensity (a.u.) |
| AAATTTTAATACGTGTAGCATTGCTCCCGGTAATGTATTTCGGAGTCACCTAGTGCAG | 3700 fluorescence intensity (a.u.) |
| CGTTTGCTCTTGTTCCGTTAATTCTTACTAACCTTAACTGCGGAGTCACCTAGTGCAG | 3330 fluorescence intensity (a.u.) |
| ATGCACATTTGCCACCTAGGCCTACATGTCAGTCTCAGCCCGGAGTCACCTAGTGCAG | 6980 fluorescence intensity (a.u.) |
| GTGTGTTCACAACGCAAAGACGATGACTGTAGTAGTATCTCGGAGTCACCTAGTGCAG | 4250 fluorescence intensity (a.u.) |
| ATATATATGACCAACCATTTCAGCTAACGAGTAGCTATCCCGGAGTCACCTAGTGCAG | 3760 fluorescence intensity (a.u.) |
| ATTAACCTCAGGAGTTAGGAGTACAAAATAGTATACCTTTCGGAGTCACCTAGTGCAG | 28000 fluorescence intensity (a.u.) |
| AGAGGAAGAGGAAGAAGAGGTCATTCCGCCACGTCCCGGACGGAGTCACCTAGTGCAG | 7090 fluorescence intensity (a.u.) |
| ACTCTACCACCATCATTAGCCAGGCTATATCTCAAGCACACGGAGTCACCTAGTGCAG | 14100 fluorescence intensity (a.u.) |
| AGCAGCAAAGCTCACGTTGCTACACGAGTCACGTCTCGCTCGGAGTCACCTAGTGCAG | 3270 fluorescence intensity (a.u.) |
| TGGTCTGGGTGATATGGCCTATTCTGATTGGGTGTGGTTGCGGAGTCACCTAGTGCAG | 3400 fluorescence intensity (a.u.) |
| GCCCACCACCGCCATTCGCCACCACCTCGCCTCCGATTCACGGAGTCACCTAGTGCAG | 3250 fluorescence intensity (a.u.) |
| CTCGATTCTTCTGCAGCTGGGCGGGAGGGGAGGCGTGGCGCGGAGTCACCTAGTGCAG | 3250 fluorescence intensity (a.u.) |
| TGAGATCTGACATCATCAAATGTTTAGTTAATCTACTGTTCGGAGTCACCTAGTGCAG | 8070 fluorescence intensity (a.u.) |
| TGGCTGGCGTGTTCGCTTCCGGTGGTATCCACATCGCCCCCGGAGTCACCTAGTGCAG | 3280 fluorescence intensity (a.u.) |
| TGACCACAGTGCTGACCTGTAGGAATCTGCCACGTGGCAGCGGAGTCACCTAGTGCAG | 23200 fluorescence intensity (a.u.) |
| AAACAAAGCAAAGGAAGGTCAATGACAACGTGGGATTATTCGGAGTCACCTAGTGCAG | 4340 fluorescence intensity (a.u.) |
| GGATTATCAGCACCTCGAAGTGGGGCGACAAGGTGGGATCCGGAGTCACCTAGTGCAG | 34900 fluorescence intensity (a.u.) |
| CTCGCCGGCCACGTCACCTGCCCTGTCTGTCGGTGCAACCCGGAGTCACCTAGTGCAG | 15400 fluorescence intensity (a.u.) |
| CCCCACGTTCCGGTGGTGCCCACGCGTCATAGACGGTTAACGGAGTCACCTAGTGCAG | 3460 fluorescence intensity (a.u.) |
| GTGCGCGCGCGCCGCCTGGCGCCACGCACGCCATGCACGCCGGAGTCACCTAGTGCAG | 5210 fluorescence intensity (a.u.) |
| CCTCCGCCACACCCGCGCCACCCGCTCCCTTCGCCGGCTCCGGAGTCACCTAGTGCAG | 3240 fluorescence intensity (a.u.) |
| GTCGCGCGCTTGGTGGCTTGCAAGAACCAGCTCCACCGCGCGGAGTCACCTAGTGCAG | 3300 fluorescence intensity (a.u.) |
| CGTGGCCCACGTAAACGTCACGCTCACGTCTCCTTTACTCCGGAGTCACCTAGTGCAG | 7390 fluorescence intensity (a.u.) |

| Sequence | binding signal |
| --- | --- |
| CTACACGTGATTCCAGCGTTGGAATCATCACGATTCTCGACGGAGTCACCTAGTGCAG | 3660 fluorescence intensity (a.u.) |
| AGCTAGGATGGTGCTGACGCTTAGGTTACAGTTTACTTTTCGGAGTCACCTAGTGCAG | 6370 fluorescence intensity (a.u.) |
| GAAATCTGAACAACCAAGTTACTACTGTACTTATGTTAGTCGGAGTCACCTAGTGCAG | 20700 fluorescence intensity (a.u.) |
| ATTACACATTATTATCGGTTGCATGAAAATTAACCACATTCGGAGTCACCTAGTGCAG | 27700 fluorescence intensity (a.u.) |
| GGACTGCATGTGGAGGAGGGTGTTCATGGTGGCCAAGTCGCGGAGTCACCTAGTGCAG | 3400 fluorescence intensity (a.u.) |
| TCCATTCAGCATGAATACGGTCTCACTAGAGACAACGTCACGGAGTCACCTAGTGCAG | 4730 fluorescence intensity (a.u.) |
| CCAAAGACGACCGGTAATGCCACGTTTCATTTAGTGGTTTCGGAGTCACCTAGTGCAG | 8720 fluorescence intensity (a.u.) |
| GTGCTTTGATTCCGCACCACGTTGCACTGCACACAGACCTCGGAGTCACCTAGTGCAG | 5920 fluorescence intensity (a.u.) |
| CGTGATAAAGTACTCCACGTTGACAGTGACAAGTACTCCACGGAGTCACCTAGTGCAG | 6180 fluorescence intensity (a.u.) |
| CTCAGTTAGTCCTCAGTGACCCACGTGCCTTTGAAGAATTCGGAGTCACCTAGTGCAG | 3680 fluorescence intensity (a.u.) |
| TCAGCTGGCATGCATGGCAACATATATATGGCTGGAAGTACGGAGTCACCTAGTGCAG | 40000 fluorescence intensity (a.u.) |
| TATGTCATCTATTAAAATAGGCGTAACTTTCTCATACGGACGGAGTCACCTAGTGCAG | 31300 fluorescence intensity (a.u.) |
| CCTTGGCACAGCCACGTGAGCATGTCTAGGTGGACATGTGCGGAGTCACCTAGTGCAG | 9990 fluorescence intensity (a.u.) |
| GTGGGTATGGGTAAGATTCGGTGAGGGCTGGGCTACCATGCGGAGTCACCTAGTGCAG | 4580 fluorescence intensity (a.u.) |
| GTCGTCCGTCCTCGCTCCATTCGCTGTTGGGGCGCGCCAACGGAGTCACCTAGTGCAG | 3440 fluorescence intensity (a.u.) |
| GGCCGCCGTGCTCTGGGTGGCCGCCGTCACCGTGCTCTTCCGGAGTCACCTAGTGCAG | 3140 fluorescence intensity (a.u.) |
| TTCGTCCTCCTCGTACATCACGTTGTGACAGCGCATTTGCCGGAGTCACCTAGTGCAG | 5910 fluorescence intensity (a.u.) |
| ATCGATCGTCCCTGAATTCAAACAGTACTTACATTATATACGGAGTCACCTAGTGCAG | 15300 fluorescence intensity (a.u.) |
| AGTTAGCGCCTGACGGTGATGCTGATGCGACGTACTCTCCCGGAGTCACCTAGTGCAG | 4850 fluorescence intensity (a.u.) |
| GGGCCCAACCGCCTCGGTGCGCCTCGCCTCCGCGCACCTGCGGAGTCACCTAGTGCAG | 3350 fluorescence intensity (a.u.) |
| TCCTTCTTCAGCCCCGGCACGTCCGCCTTGAACACGTGCGCGGAGTCACCTAGTGCAG | 3570 fluorescence intensity (a.u.) |
| TATCAGTATGTATTGGAACAGGTGACACACTCCAACTCCACGGAGTCACCTAGTGCAG | 3460 fluorescence intensity (a.u.) |
| TTCGTCTGGCGACCGCGACTCCATCTTGACCCTTCCGGCCCGGAGTCACCTAGTGCAG | 3370 fluorescence intensity (a.u.) |
| AACCACACTCACACGTGTCAGCCTGTCATCTACACATTTTCGGAGTCACCTAGTGCAG | 16000 fluorescence intensity (a.u.) |
| CAATGACAACGATGCTGTCGCGTGTAAATCCACGTGGCATCGGAGTCACCTAGTGCAG | 16500 fluorescence intensity (a.u.) |
| TGTAGGAGAACATCCCCACCTGCCCCAACCATGTCGGCGCCGGAGTCACCTAGTGCAG | 9260 fluorescence intensity (a.u.) |
| AAACCATTCGCCCGATTTGATCCACATCACCACTTTGGTTCGGAGTCACCTAGTGCAG | 10400 fluorescence intensity (a.u.) |
